PubChem BioAssay AID743456, Peter MacCallum Cancer Centre, 2014
Assay: 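miRNA mimics altering how resistant colon cancer cells respond to vorinostat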 (primary screen). Cells: human HCT116-VR colon cancer cells, a vorinostat-resistant HCT116 line. Reagents: miRNA mimic. Duration: about 3 days from transfection to readout; drug present for the last 24 h. Conditions: vorinostat at 2.5 µM final for 24 h. Detection: 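Cell viability from CellTiter-Fluor signal and caspase activity from luminescence after 24 h vorinostat at 2.5 µM, given as robust z-scores and as ratios to mock-transfected wells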. Direction: viability robust z-score and viability vs mock transfection: higher = more viable cells; caspase robust z-score: higher = more caspase activity, more apoptosis. Active means: 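Active when viability drops or caspase activity climbs beyond robust z thresholds, with wells of poor cell health excluded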.
Here is an unselected part of 878 deposited reagents. 27 of them (3.1%) count as active. 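27 mimics are marked active, unlike an earlier stated count of 24; the viability threshold is described inconsistently.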 Unmarked entries are inactive. Not stated in the record: the amount of reagent.

miRNA	viability robust z-score	caspase robust z-score	viability hit class	caspase hit class	viability vs mock transfection
hsa-miR-1203	0.72	-0.57	no change	no change	0.88
hsa-miR-145*	-0.06	-0.92	no change	no change	0.74
hsa-miR-570	1.03	0.88	no change	no change	0.96
hsa-miR-299-5p	0.08 (active)	6.86	no change	caspase activation	0.76
hsa-miR-31*	-0.71	0.16	no change	no change	0.68
hsa-miR-411	-0.48	-0.63	no change	no change	0.71
hsa-miR-214*	-2.48	-0.68	no change	no change	0.38
hsa-miR-380*	-1.38	3.12	no change	no change	0.56
hsa-miR-146b-5p	-0.08	-0.96	no change	no change	0.78
hsa-miR-335	0.19	-0.78	no change	no change	0.82
hsa-miR-541*	1.06	-0.62	no change	no change	0.97
hsa-miR-367	1.1	-0.15	no change	no change	0.98
hsa-miR-191	0.93	-0.01	no change	no change	0.92
hsa-miR-614	0.57	-0.74	no change	no change	0.85
hsa-miR-499-3p	-0.32	2.04	no change	no change	0.69
hsa-miR-374a	0.76	-0.66	no change	no change	0.91
hsa-miR-106a	0.96	0.11	no change	no change	0.92
hsa-miR-1207-5p	-1.67	0.05	no change	no change	0.51
hsa-miR-194	0	0.1	no change	no change	0.75
hsa-miR-802	-1.38	-0.44	no change	no change	0.55
hsa-miR-505*	-0.18 (active)	5.22	no change	caspase activation	0.76
hsa-miR-25	0.2	-0.7	no change	no change	0.82
hsa-miR-618	-0.72	0.14	no change	no change	0.62
hsa-miR-21*	0.84	-0.22	no change	no change	0.9
hsa-miR-664	-0.06	-0.88	no change	no change	0.78
hsa-miR-15b	-1.71	2.16	no change	no change	0.5
hsa-miR-216a	1.07	-0.57	no change	no change	0.96
hsa-miR-24	0.26	-0.5	no change	no change	0.84
hsa-miR-129-3p	-1.46	-0.74	no change	no change	0.48
hsa-miR-891a	0.92	0.12	no change	no change	0.94
hsa-miR-448	-0.21	1.86	no change	no change	0.71
hsa-miR-20a*	0.9	-0.03	no change	no change	0.91
hsa-miR-320c	0.74	1.12	no change	no change	0.91
hsa-miR-1268	1.21	-0.3	no change	no change	1
hsa-miR-488*	0.72	-0.67	no change	no change	0.91
hsa-miR-1256	-0.22	2.37	no change	no change	0.76
hsa-miR-20b*	0.04	-0.68	no change	no change	0.8

An excerpt from the list above, as a working copy:
miRNA	viability robust z-score	caspase robust z-score	viability hit class	caspase hit class	viability vs mock transfection
hsa-miR-505*	-0.18 (active)	5.22	no change	caspase activation	0.76
hsa-miR-25	0.2	-0.7	no change	no change	0.82
hsa-miR-618	-0.72	0.14	no change	no change	0.62
hsa-miR-21*	0.84	-0.22	no change	no change	0.9
hsa-miR-664	-0.06	-0.88	no change	no change	0.78
hsa-miR-15b	-1.71	2.16	no change	no change	0.5
